Results from ChEMBL document CHEMBL1128468, “Amino acid side chain descriptors for quantitative structure-activity relationship studies of peptide analogues” (J Med Chem, 1995).

Sequences of proteins named here, by UniProt entry; tags and fusion partners are left off.
UniProt P12821, whole entry: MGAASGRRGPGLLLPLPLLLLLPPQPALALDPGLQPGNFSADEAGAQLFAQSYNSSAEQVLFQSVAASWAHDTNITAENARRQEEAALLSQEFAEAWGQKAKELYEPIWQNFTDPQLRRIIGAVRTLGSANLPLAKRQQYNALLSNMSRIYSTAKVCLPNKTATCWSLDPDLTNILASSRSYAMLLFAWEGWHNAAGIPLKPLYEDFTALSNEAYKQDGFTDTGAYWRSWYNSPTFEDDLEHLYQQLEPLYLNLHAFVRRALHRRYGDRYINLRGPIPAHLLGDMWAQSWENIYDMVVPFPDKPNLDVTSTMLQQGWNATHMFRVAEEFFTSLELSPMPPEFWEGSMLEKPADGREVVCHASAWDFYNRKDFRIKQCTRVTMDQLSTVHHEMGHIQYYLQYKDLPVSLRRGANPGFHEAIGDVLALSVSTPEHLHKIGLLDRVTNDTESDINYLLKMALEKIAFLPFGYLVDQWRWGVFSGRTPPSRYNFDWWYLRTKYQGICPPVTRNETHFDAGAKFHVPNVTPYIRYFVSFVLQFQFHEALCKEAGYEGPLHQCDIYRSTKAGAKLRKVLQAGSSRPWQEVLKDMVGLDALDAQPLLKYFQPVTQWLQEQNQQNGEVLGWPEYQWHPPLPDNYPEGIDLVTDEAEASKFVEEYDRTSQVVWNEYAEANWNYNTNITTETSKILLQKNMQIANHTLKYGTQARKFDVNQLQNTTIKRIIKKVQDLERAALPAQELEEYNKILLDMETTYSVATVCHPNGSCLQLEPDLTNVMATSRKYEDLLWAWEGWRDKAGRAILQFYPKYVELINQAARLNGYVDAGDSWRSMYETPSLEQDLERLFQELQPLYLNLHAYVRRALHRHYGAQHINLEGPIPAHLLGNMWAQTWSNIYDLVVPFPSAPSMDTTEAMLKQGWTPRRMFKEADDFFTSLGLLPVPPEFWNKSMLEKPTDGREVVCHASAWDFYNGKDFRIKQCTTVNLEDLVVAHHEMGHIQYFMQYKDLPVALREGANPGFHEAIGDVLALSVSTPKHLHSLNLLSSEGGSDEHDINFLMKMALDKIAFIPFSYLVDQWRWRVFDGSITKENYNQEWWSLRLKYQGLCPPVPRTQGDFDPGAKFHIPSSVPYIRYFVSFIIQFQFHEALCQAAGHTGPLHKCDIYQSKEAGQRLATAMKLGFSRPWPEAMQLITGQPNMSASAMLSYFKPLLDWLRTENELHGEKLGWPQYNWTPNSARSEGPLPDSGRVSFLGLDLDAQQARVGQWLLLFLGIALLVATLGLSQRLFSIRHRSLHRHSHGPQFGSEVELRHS

Molecular target: Angiotensin-converting enzyme (Homo sapiens, UniProt P12821)
Assay: Biological activity was measured against Angiotensin I converting enzyme
Conditions: read-out: Log 1/IC50 (converted)

- IC50: 2 mM
SMILES: N[C@@H](Cc1ccc(O)cc1)C(=O)NCC(=O)O
